The filed quantity is “Percent Effect” (%).
How 0% and 100% were set is not recorded. Most values in the screen are low, and negative values occur.
Compounds were drawn at random from those tested, without regard to their results.
A dash means the value is not listed here; it may have been measured.

The chains behind the UniProt entries cited, without tags or fusion partners. Residues count along the entry.
UniProt P9WPC5, whole entry: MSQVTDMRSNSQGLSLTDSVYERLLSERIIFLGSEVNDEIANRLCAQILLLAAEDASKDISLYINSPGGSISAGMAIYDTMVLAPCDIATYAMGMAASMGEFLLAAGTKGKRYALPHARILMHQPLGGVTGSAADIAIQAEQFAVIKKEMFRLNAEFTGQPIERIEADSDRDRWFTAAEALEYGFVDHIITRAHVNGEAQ
UniProt P9WPC3, whole entry partner: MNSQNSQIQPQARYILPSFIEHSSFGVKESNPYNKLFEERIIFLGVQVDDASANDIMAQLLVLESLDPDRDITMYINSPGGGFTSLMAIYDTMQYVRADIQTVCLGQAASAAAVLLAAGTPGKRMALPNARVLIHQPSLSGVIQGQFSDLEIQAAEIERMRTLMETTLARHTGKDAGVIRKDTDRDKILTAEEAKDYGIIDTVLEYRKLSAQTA
UniProt P9WNZ1, whole entry: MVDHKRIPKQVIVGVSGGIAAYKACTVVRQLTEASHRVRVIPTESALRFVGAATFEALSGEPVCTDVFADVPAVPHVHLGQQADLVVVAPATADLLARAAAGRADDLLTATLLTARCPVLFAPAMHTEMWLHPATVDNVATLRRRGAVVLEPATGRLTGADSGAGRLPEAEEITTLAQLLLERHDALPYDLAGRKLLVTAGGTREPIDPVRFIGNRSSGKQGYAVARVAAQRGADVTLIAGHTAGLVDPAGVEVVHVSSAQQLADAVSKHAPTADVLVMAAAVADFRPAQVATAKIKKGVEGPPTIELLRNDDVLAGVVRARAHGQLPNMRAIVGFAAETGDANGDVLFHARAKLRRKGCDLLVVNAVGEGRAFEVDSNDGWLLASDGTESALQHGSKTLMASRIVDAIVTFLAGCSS
UniProt Q8IDJ8, 1-583: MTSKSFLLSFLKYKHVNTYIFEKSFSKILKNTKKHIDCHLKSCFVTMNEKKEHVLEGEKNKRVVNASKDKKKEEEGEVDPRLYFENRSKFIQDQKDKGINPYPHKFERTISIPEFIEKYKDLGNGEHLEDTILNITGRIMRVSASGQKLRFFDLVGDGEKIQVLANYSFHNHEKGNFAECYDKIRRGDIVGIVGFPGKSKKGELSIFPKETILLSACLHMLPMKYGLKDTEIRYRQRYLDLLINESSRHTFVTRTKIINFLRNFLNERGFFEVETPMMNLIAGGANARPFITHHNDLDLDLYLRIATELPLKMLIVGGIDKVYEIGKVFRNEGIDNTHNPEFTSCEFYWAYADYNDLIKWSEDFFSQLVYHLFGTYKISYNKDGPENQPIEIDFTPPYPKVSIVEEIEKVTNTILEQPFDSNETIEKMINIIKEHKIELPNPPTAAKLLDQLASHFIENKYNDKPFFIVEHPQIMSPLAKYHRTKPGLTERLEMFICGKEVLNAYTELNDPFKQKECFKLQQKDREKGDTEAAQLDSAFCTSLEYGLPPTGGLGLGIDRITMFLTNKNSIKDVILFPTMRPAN
UniProt Q4DA54, 1-478: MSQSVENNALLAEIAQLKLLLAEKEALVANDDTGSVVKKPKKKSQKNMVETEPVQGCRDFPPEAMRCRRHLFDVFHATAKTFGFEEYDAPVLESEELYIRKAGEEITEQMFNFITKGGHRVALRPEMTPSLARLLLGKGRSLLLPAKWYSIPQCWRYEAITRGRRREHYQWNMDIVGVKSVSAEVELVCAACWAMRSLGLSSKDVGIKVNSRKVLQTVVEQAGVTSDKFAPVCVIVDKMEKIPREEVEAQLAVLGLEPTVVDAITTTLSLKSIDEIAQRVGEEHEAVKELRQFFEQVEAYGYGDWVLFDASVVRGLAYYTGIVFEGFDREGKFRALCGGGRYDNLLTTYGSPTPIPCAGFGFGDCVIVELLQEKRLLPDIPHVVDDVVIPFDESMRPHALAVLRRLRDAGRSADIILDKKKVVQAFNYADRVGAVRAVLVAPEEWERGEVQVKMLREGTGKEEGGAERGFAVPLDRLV
UniProt I6X8D2, whole entry: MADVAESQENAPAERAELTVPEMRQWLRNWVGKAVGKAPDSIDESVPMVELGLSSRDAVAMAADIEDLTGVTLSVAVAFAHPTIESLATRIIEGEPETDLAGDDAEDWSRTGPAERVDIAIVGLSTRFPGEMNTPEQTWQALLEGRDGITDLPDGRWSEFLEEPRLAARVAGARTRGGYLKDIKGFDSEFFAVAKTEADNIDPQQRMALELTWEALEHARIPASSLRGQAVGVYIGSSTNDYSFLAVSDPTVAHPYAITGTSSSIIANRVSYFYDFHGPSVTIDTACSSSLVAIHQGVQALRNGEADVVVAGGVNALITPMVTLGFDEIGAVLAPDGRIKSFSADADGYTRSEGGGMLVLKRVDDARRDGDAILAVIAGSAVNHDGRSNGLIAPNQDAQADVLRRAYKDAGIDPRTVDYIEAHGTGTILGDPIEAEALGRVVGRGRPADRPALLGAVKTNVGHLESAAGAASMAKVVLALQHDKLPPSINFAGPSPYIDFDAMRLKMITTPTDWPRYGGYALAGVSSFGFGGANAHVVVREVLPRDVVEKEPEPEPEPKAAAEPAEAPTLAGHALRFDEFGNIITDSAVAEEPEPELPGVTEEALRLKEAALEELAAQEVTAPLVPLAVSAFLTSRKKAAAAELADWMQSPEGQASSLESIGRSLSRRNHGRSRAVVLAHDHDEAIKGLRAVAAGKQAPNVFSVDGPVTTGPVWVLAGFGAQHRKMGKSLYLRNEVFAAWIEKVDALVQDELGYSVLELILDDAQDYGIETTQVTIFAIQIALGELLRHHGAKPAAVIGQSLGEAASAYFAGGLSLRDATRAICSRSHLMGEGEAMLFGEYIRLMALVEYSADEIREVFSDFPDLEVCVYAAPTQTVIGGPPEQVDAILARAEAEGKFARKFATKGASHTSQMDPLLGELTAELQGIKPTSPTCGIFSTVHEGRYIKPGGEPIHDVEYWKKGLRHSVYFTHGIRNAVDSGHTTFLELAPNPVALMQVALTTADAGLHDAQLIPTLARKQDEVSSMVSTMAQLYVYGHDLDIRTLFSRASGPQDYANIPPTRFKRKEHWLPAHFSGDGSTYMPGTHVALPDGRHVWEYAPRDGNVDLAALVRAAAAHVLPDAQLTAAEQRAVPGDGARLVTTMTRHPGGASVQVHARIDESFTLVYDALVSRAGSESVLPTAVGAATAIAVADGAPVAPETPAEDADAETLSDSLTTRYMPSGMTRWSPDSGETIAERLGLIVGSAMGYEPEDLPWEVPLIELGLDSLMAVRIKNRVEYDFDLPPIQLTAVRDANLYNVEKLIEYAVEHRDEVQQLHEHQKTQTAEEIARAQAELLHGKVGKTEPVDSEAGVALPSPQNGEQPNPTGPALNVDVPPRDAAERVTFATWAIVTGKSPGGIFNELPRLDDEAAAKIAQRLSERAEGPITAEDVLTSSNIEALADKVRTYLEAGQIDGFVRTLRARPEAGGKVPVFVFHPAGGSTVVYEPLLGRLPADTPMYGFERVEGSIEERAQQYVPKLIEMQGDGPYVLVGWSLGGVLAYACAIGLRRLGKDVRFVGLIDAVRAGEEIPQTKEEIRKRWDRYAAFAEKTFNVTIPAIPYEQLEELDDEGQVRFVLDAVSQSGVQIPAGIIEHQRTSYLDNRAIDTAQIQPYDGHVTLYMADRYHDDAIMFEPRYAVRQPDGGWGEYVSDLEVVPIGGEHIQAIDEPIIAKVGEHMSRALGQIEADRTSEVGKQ

A: 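Protease assay of ClpP1P2, read by the AMC dye that it sets free. Target: ClpP1P2, Mycobacterium tuberculosis (UniProt P9WPC5 and UniProt P9WPC3). Concentration: 50 µM. Higher reads as stronger inhibition, judged from the few compounds that gave an IC50. Most other retested compounds had strongly negative values. About 69,000 compounds were tested under these conditions; 0.015% (about 10) showed 50% or more at least once.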
B: 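Coenzyme A biosynthesis protein CoaBC, Mycobacterium tuberculosis (UniProt P9WNZ1). Enzyme assay of CoaBC with a phosphate dye (Biomol Green) read at 650 nm. Concentration: 30 µM. Direction is inferred from only a few compounds that gave an IC50; most scored high, so higher reads as stronger inhibition. Most strong results did not repeat in a second test. Size under these conditions: about 67,000 compounds, about 40 of them at 50% or above in at least one test.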
C: 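Enzyme assay of the cytosolic lysyl-tRNA synthetase in 384-well plates, read by luminescence. Target: Lysine-tRNA ligase, Plasmodium falciparum 3D7 (UniProt Q8IDJ8). Tested at 30 µM. Higher reads as stronger inhibition, judged from the few compounds that gave an IC50. Of about 69,000 compounds tested this way, about 49 (0.071%) reached 50% or more in at least one test.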
D: 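Enzyme assay of histidyl-tRNA synthetase; the read-out is not stated. Target: Histidine-tRNA ligase, Trypanosoma cruzi CL Brener (UniProt Q4DA54). Concentration: 30 µM. Higher reads as stronger inhibition (inferred: compounds with an IC50 in retests scored well above the rest). Of about 69,000 compounds tested this way, about 31 (0.045%) reached 50% or more in at least one test.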
E: 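Polyketide synthase Pks13, Mycobacterium tuberculosis (UniProt I6X8D2). Enzyme assay of the thioesterase domain of polyketide synthase 13; the read-out is not stated. Compounds at 30 µM. The record gives no direction; the compounds picked for IC50 retests had high values, so higher reads as stronger inhibition. Of about 67,000 compounds tested this way, about 300 (0.46%) reached 50% or more in at least one test.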

compound | A | B | C | D | E
N#Cc1cccc(C(=O)NS(=O)(=O)c2ccc(C#N)c(Cl)c2)c1 | 0.416 | -3.623 | -3.255 | 8.387 | -7.764
O=C(CSCc1ccncc1)N(Cc1ccsc1)C1CC1 | 2.052 | -2.016 | -1.926 | 7.263 | -40.46
Cc1cc(NC(=O)c2ccc(F)cc2F)n(C)n1 | 8.31 | 7.143 | 1.494 | -4.972 | -20.52
N#CC1CCCN(C(=O)Cn2ncc(N3CCCC3)cc2=O)C1 (configuration not stated) | -10.72 | 3.676 | 2.005 | 3.017 | -19.58
Cc1cccnc1NCCNC(=O)c1cnc(-c2cccs2)nc1O | -12.44 | 1.85 | 4.616 | -0.8772 | 3.49
CC(=O)N1CC[C@H]2CC(=O)N(C3CCCCC3)CC[C@H]2C1 | -8.926 | 14.22 | 4.66 | 13.86 | -
CCN(Cc1noc(C(C)C)n1)Cc1ccc(C#N)cc1F | -11.05 | 4.642 | 3.474 | -5.366 | 24.74
NC(=O)c1cc(C2CCCN(C(=O)CCc3cccs3)C2)n[nH]1 (configuration not stated) | -10.09 | 0.4779 | -1.342 | 0 | -18.02
O=C(NC1CC(F)(F)C1)[C@]12COC[C@H]1CN(Cc1cccnc1)C2 | 4.622 | 3.448 | 2.478 | 7.216 | -32.23
CC1CCN(CC2(O)CCCN(Cc3cccc(F)c3F)C2=O)CC1 (configuration not stated) | -0.7449 | -2.621 | 3.941 | 2.174 | 7.84
Cc1ncc2c(n1)CN(CC(=O)Nc1c(C)nn(C)c1C)CC2 | -35.87 | 3.704 | 2.127 | 5.78 | -3.442
O=C(CS(=O)(=O)c1ccccn1)NC1CCCc2ccccc21 (configuration not stated) | 10.41 | 3.182 | 1.408 | 3.784 | -9.179
O=C(NCCC1=CCCCC1)c1n[nH]c2c1CCCC2 | 15.58 | 0.1318 | 2.066 | 7 | -66.08
COc1ncccc1CN1C[C@@H]2CN(c3ncccn3)C[C@@H]2C1 | 0.1268 | 0.1212 | 3.789 | 2.793 | -35.6
CC(C)CN(Cc1nnc(-c2ccco2)o1)CC(C)C | -0.125 | -0.609 | 5.424 | 8.929 | -17.74
O=C(CCC1CCCO1)NCCCO (configuration not stated) | -6.465 | -0.86 | -0.4301 | 0 | -
CN(CC1(O)CCCN(c2ccccn2)C1)C(=O)CCc1cccs1 (configuration not stated) | -8.041 | 7.311 | 0.9508 | 6.742 | 8.146
CCN(C(=O)CN1CCCN(c2nc(C)ns2)CC1)C1CC1 | -6.519 | 1.384 | 5.711 | 0 | -14.13
CN(C)c1nc2ncc(Cl)cc2cc1C#N | -6.204 | 1.611 | 0.3079 | 4.167 | -19.86
CCOc1ccc(NC(=O)c2[nH]c(C)cc2C)cc1CO | -5.935 | - | -3.84 | 1.911 | -3.983
O=C(C1CC1)N1CC2(CCN(CC3CC3)CC2)c2cc(F)ccc21 | -10.8 | 0.5089 | -0.1835 | 0 | -65.12
Cc1nc(C(C)(C)NC(=O)Nc2ccncc2)no1 | -5.522 | 0 | 5.516 | 5.911 | -
Cn1ccnc1SCCNc1cc(N2CCOCC2)ncn1 | 28.46 | 9.644 | 2.452 | -11.28 | -17.15
O=C(CC1CCCCC1)N1C[C@H]2CC[C@@H]1CN(Cc1cccnc1)C2 | -6.575 | -15.43 | 2.394 | 9.948 | -4.026
Cc1ccc(S(=O)(=O)NCCNc2cc(-n3cccc3)ncn2)c(C)c1 | -1.932 | 0.2114 | 3.135 | 5.155 | -24.16
CNC(=O)Cc1ccccc1NC(=O)NCc1ccc(SC)cc1 | 6.202 | -2.927 | -0.966 | 3.896 | 27.18
CC(=O)Nc1nc(CN2CCOC(Cn3nc(C)cc3C)C2)cs1 (configuration not stated) | -8.805 | 0 | -3.102 | 2.624 | -11.04
Cn1c2ccccc2c2ncn(CCCN3CCOCC3)c(=O)c21 | 10.81 | 0 | -3.095 | 3 | 16.78
CCOc1ccc(Cl)cc1CCNC(=O)N1CCCC(CO)C1 (configuration not stated) | -3.682 | 7.937 | 0.5247 | 0 | -21.82
CO[C@H]1C[C@@H](O)C12CCN(CCCOc1ccc(C(N)=O)cc1)CC2 | -3.377 | -1.699 | 2.42 | 9.901 | -3.911
Cc1c[nH]nc1C1CCCCN1C(=O)CCn1nccc1C (configuration not stated) | -12 | -3.883 | -4.096 | -18.68 | -25.98
COc1ccc(OC)c(S(=O)(=O)NCC2(OC)CCSC2)c1 (configuration not stated) | 5.022 | 9.244 | 1.535 | 0 | -33.61
O=C(NCCc1nnc2n1CCC2)NCC1(c2ccccc2F)CC1 | -12.51 | 1.449 | 0.502 | 6 | -4.853
CCCS(=O)(=O)N1C[C@@H]2COC[C@]2(CN2CCOCC2)C1 | -0.9075 | 6.341 | 6.271 | 1.961 | -27.7
Cc1ccc(F)c(S(=O)(=O)NCc2[nH]ncc2Br)c1 | -8.338 | 7.645 | 5.561 | 7.937 | -2.453
COc1ccnc(N2CCN(Cc3ncc(-c4ccccc4)o3)CC2)n1 | -4.886 | 1.582 | 6.268 | 5.419 | 22.71

Repeated from the top, 3 entries:

- N#Cc1cccc(C(=O)NS(=O)(=O)c2ccc(C#N)c(Cl)c2)c1 : A: 0.416%; B: -3.623%; C: -3.255%; D: 8.387%; E: -7.764%
- O=C(CSCc1ccncc1)N(Cc1ccsc1)C1CC1 : A: 2.052%; B: -2.016%; C: -1.926%; D: 7.263%; E: -40.46%
- Cc1cc(NC(=O)c2ccc(F)cc2F)n(C)n1 : A: 8.31%; B: 7.143%; C: 1.494%; D: -4.972%; E: -20.52%

The values are deposited in ChEMBL (CHEMBL3988442, “University of Dundee, Small-Polar-MMV Screening Library” (2021)).